Measurements: paper PMC7819943, “Rice protein-binding microarrays: a tool to detect cis-acting elements near promoter regions in rice”
The other results are listed elsewhere or left out.

Chains of the proteins cited; added tags and fusions are not shown.
UniProt Q0JBA9, entry or part of it: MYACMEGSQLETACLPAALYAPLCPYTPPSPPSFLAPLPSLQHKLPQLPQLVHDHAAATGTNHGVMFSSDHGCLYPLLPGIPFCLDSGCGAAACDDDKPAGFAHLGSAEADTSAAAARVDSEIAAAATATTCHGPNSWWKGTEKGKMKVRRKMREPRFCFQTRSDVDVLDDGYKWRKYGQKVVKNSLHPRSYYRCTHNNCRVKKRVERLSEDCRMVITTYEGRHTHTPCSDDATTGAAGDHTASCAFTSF

Target: OsWRKY34 (Oryza sativa, UniProt Q0JBA9 1-250)
Assay: protein-binding microarray (RPBM); PBS, 2% BSA, 51.3 ng/ul salmon testes DNA, 50 uM zinc acetate, 200 nM TF, 25 C, 1 h; high values mean tight binding
Conditions: protein: recombinant; tags: N-terminal polyhistidine and DsRed monomer fusion (pET32a); label: CyDye5-dUTP incorporated in the synthesized complementary strand; 3' TTTTT single-stranded linker to array surface; dsDNA, one strand shown
Method in brief: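 Binding signal here means per-feature fluorescence intensity in arbitrary units. The values were read on an Axon 4000B scanner after a custom Agilent array, double-stranded by primer extension with Cy5-dUTP, was incubated with 200 nM protein at 25 °C for 1 h in PBS with 2% BSA, salmon testes DNA and 50 µM zinc acetate, then washed. The proteins were transcription factors with an N-terminal polyhistidine tag and DsRed, expressed in E. coli BL21-CodonPlus and purified on Ni–NTA.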

Row | Sequence | binding signal
1 | TATGGTTGGTTCTTATGTGTCCCTAAGCGTGCAAAAAATACGGAGTCACCTAGTGCAG | 12000 fluorescence intensity (a.u.)
2 | TCATCTGTATGATATATAGTACTACATCTTTTGACATTTTCGGAGTCACCTAGTGCAG | 10300 fluorescence intensity (a.u.)
3 | CCGTTTCTTGAATTCGTCGCTTCTTTTGCTGTTCGATTCTCGGAGTCACCTAGTGCAG | 12800 fluorescence intensity (a.u.)
4 | GTGCGGCCATATCGGCCCGATTGAGATTACTTCCTTGTGACGGAGTCACCTAGTGCAG | 8080 fluorescence intensity (a.u.)
5 | GAATGTAATCATCTTCTCTCTAATCTAATACACACAGTACCGGAGTCACCTAGTGCAG | 8120 fluorescence intensity (a.u.)
6 | ATTCCCACGCAACATTGTCCCCGCGGAGTCCACAGAGAAACGGAGTCACCTAGTGCAG | 8290 fluorescence intensity (a.u.)
7 | ACCTGCACCCGGACTTCCCTTATTCTTCTGATTCATCCTGCGGAGTCACCTAGTGCAG | 8050 fluorescence intensity (a.u.)
8 | CGAATCGATATGGGCCGTTAGATCTCCTTTTGTCTCTTTACGGAGTCACCTAGTGCAG | 8520 fluorescence intensity (a.u.)
9 | GTAGGGGTAGGGGTGGCGTGGCGTGTGCCAATGACCTAACCGGAGTCACCTAGTGCAG | 11300 fluorescence intensity (a.u.)
10 | TCTGCCGTTTGTATAGTAGCTCGATCTTGTTCCTGCCAAACGGAGTCACCTAGTGCAG | 8630 fluorescence intensity (a.u.)
11 | ACATGCCCATGCGCGACACGTGCACCTCCTCATCCAAACTCGGAGTCACCTAGTGCAG | 8280 fluorescence intensity (a.u.)
12 | AGCAGTTGACCAGCGGGCTACAAGTCAACTCCCGGCCCATCGGAGTCACCTAGTGCAG | 8620 fluorescence intensity (a.u.)
13 | TATTGATCGCGTCAGCTTCCACTTGCGTTGTTCTTTGCGGCGGAGTCACCTAGTGCAG | 8580 fluorescence intensity (a.u.)
14 | AATCCCACCGCCTCAATCCACCACCGCCAAGTTTCAAATCCGGAGTCACCTAGTGCAG | 8090 fluorescence intensity (a.u.)
15 | CATTCAGTATTATATTGGTTTTTTATGGGATGGAGAGAGACGGAGTCACCTAGTGCAG | 8200 fluorescence intensity (a.u.)
16 | CCAGCATAATAGACTAGCATCCCGAATATACCCCTGCCATCGGAGTCACCTAGTGCAG | 8980 fluorescence intensity (a.u.)
17 | TGATTGCGCTCTCTCTCTCTCTCTCTCTCTCTCTCGTTCGCGGAGTCACCTAGTGCAG | 10100 fluorescence intensity (a.u.)
18 | CCTTTTGCACATGTTGTATGTACCTTTTACACATGTTGTACGGAGTCACCTAGTGCAG | 9490 fluorescence intensity (a.u.)
19 | ATCTTGTATTCAAATTGCATCGTTTAATCGTTACAGTTATCGGAGTCACCTAGTGCAG | 8040 fluorescence intensity (a.u.)
20 | ATTTCTAATTTCGAATTTCAGCTATTTTTTATATTGTATTCGGAGTCACCTAGTGCAG | 9050 fluorescence intensity (a.u.)
21 | ATTCAATTCGCAGCTATATTTGTTATTTTTGTTACAACTTCGGAGTCACCTAGTGCAG | 13800 fluorescence intensity (a.u.)
22 | TATTCAGATACTATACTCTCCTGTTTCCTGACAATTTTATCGGAGTCACCTAGTGCAG | 8460 fluorescence intensity (a.u.)
23 | TGTTATTTTCTTGTGAGCCACCTATACACATTATCTTTTACGGAGTCACCTAGTGCAG | 12500 fluorescence intensity (a.u.)
24 | TCCCCAACACCTCCACTCCTCTCCTCTTATCCGCGAACATCGGAGTCACCTAGTGCAG | 8300 fluorescence intensity (a.u.)
25 | TGCAAGATAGCCTGCCGGCCCCAATCCTAATTGCTGTAATCGGAGTCACCTAGTGCAG | 8130 fluorescence intensity (a.u.)
26 | ACCGCCATATCAGCACACGTTTTAGAGCACCAATCATAACCGGAGTCACCTAGTGCAG | 8620 fluorescence intensity (a.u.)
27 | CAAACCGCCATTGACCACCGCCCTTCGTCGCCTATAAATACGGAGTCACCTAGTGCAG | 10100 fluorescence intensity (a.u.)

3 entries picked at random from those above, as already listed:
Row | Sequence | binding signal
5 | GAATGTAATCATCTTCTCTCTAATCTAATACACACAGTACCGGAGTCACCTAGTGCAG | 8120 fluorescence intensity (a.u.)
7 | ACCTGCACCCGGACTTCCCTTATTCTTCTGATTCATCCTGCGGAGTCACCTAGTGCAG | 8050 fluorescence intensity (a.u.)
8 | CGAATCGATATGGGCCGTTAGATCTCCTTTTGTCTCTTTACGGAGTCACCTAGTGCAG | 8520 fluorescence intensity (a.u.)

Remaining list, next part

Row | Sequence | binding signal
28 | CATGTGTTACTGTGTTATGAGATCGTGGAATTAATTCCACCGGAGTCACCTAGTGCAG | 9220 fluorescence intensity (a.u.)
29 | TCATCGATTTTTTGCCATCTACTACACGGCTTTTATTTTGCGGAGTCACCTAGTGCAG | 8880 fluorescence intensity (a.u.)
30 | AGCTGGTGGTGGTGGAGGGCAATGAGTTCACGAGCGGTCGCGGAGTCACCTAGTGCAG | 9520 fluorescence intensity (a.u.)
31 | TTTTTTTTCTCCATGTTTGTTGCAGGCTTATCAGAATGACCGGAGTCACCTAGTGCAG | 10000 fluorescence intensity (a.u.)
32 | CGTTGTTCCTTACTCACCTTTTGCCTCTCGCTGCCTTGCCCGGAGTCACCTAGTGCAG | 13500 fluorescence intensity (a.u.)
33 | ACCACGTACTGATCCTATCCATTAATCCATAAGCAACCCACGGAGTCACCTAGTGCAG | 9760 fluorescence intensity (a.u.)
34 | GACTAGTCATAATATCTTATGACTCATTCTTATGGTATATCGGAGTCACCTAGTGCAG | 8330 fluorescence intensity (a.u.)
35 | TTGATGGTCAAATATTCAAATGGTTGACTTATGAAAAATCCGGAGTCACCTAGTGCAG | 8150 fluorescence intensity (a.u.)
36 | CAGCCTATATTTATTTTTCTATCGTTTTTCCCATGACCATCGGAGTCACCTAGTGCAG | 9930 fluorescence intensity (a.u.)
37 | CTGCGCAAGTGAGCTGGGCCCTATCCTCGTCCACCTTTCACGGAGTCACCTAGTGCAG | 9910 fluorescence intensity (a.u.)
38 | AGTAGCGCAACGGCTAGTTTTTTCTCTCCTCGCGTGATGTCGGAGTCACCTAGTGCAG | 8130 fluorescence intensity (a.u.)
39 | TATATGTCGAGCCTTTTGCTTTTTATCTATGCCTCCAAAGCGGAGTCACCTAGTGCAG | 10300 fluorescence intensity (a.u.)
40 | CATAATTCCCTTACGTATAGTCGCCACACTAGGTGAGCCGCGGAGTCACCTAGTGCAG | 8120 fluorescence intensity (a.u.)
41 | ATGGGCTTTGTTGTGCTATAAGATCGTATTGGGCTCCTCACGGAGTCACCTAGTGCAG | 9340 fluorescence intensity (a.u.)
42 | CGTAACCATCCTTTTCCCTTGTGTTTTTTGCTGACTGGTTCGGAGTCACCTAGTGCAG | 11400 fluorescence intensity (a.u.)
43 | GACTCTAATTGCATGCAGTTCTTCAACTTATTTAGAACGTCGGAGTCACCTAGTGCAG | 8230 fluorescence intensity (a.u.)
44 | CGTATGGCATCTGGCCCAAACTGCGTTGACCGGCCGAAGACGGAGTCACCTAGTGCAG | 12100 fluorescence intensity (a.u.)
45 | ACACCAAATACACTCATTCGTCAACGATGTAATGGCCATCCGGAGTCACCTAGTGCAG | 8520 fluorescence intensity (a.u.)
46 | TTTAATCCTCTTCTTCCCCGGCCCATGCATATTCTCTCTGCGGAGTCACCTAGTGCAG | 11500 fluorescence intensity (a.u.)
47 | TGACCTCCTTCTTGGACGCCTCGTCGACGTACTTCTGGTACGGAGTCACCTAGTGCAG | 8550 fluorescence intensity (a.u.)
48 | GATCCATTCATCCCAACTTCTTCCATAGTACAAATCTCTTCGGAGTCACCTAGTGCAG | 10100 fluorescence intensity (a.u.)
49 | ACGGCTACCTCGACCACGGCTCCCTCACAACCTTTGCTTTCGGAGTCACCTAGTGCAG | 9560 fluorescence intensity (a.u.)
50 | TCTTCTTCTTTGTGATTCAGGCATCTGTTTATCGGTGTGTCGGAGTCACCTAGTGCAG | 9300 fluorescence intensity (a.u.)
51 | AGTGTGTAGGGATGTTGAGATTTCTTTTGATGTTGTTTTACGGAGTCACCTAGTGCAG | 9450 fluorescence intensity (a.u.)
52 | GCCGTCCCTCCATCACTGGCCGTTGCTACGCGCACATATCCGGAGTCACCTAGTGCAG | 10300 fluorescence intensity (a.u.)
53 | GTTGTCTGCGTTCCACACCAATAACGGTGTTATCCATTAGCGGAGTCACCTAGTGCAG | 8340 fluorescence intensity (a.u.)
54 | GTCCCTATCCGCATCCGGTAGCCACCCCGCAGGCCGCGGCCGGAGTCACCTAGTGCAG | 9110 fluorescence intensity (a.u.)
